# Results reported in PubChem BioAssay AID602156 (GNF / Scripps Winzeler lab, 2011).
# Some of the results follow.
# Experiment: exo-erythrocytic parasite development inhibition – imaging, Malaria Box, P. yoelii, HepG2-A16-CD81EGFP, dose response (AID 602156)
# Details: P. yoelii liver stage in HepG2-A16-CD81EGFP, liver parasite size at 10 uM, stronger effect = lower value
row,Compound,parasite size [um]
1,CCCN(CCC)[P+](CC)(N(CCC)CCC)N(CCC)CCC,31.2
